Literature values in US20170209363A1, “Personal Care Composition Comprising A Hair Restorative Blend” (priority 2016, published 2017).
For at least one compound, name, drawing or mass did not settle the structure.

Conditions: used topically

## Nc1cc(N2CCCCC2)nc(N)[n+]1[O-] [minoxidil]
  failure rate: greater than 50%
